# Measurements as given in patent US20250082610A1, “COMPOSITION, METHOD FOR MICROORGANISM GROWTH SUPPRESSION IN COMPOSITION FOR ORAL USE, AND AGENT FOR POTENTIATION OF MICROORGANISM-GROWTH-SUPPRESSING EFFECT OF QUERCETIN OR GLYCOSIDE THEREOF” (SUNTORY HOLDINGS LIMITED, priority 2022, published 2025).
# At least one compound was matched to its structure with a doubt left.
# Test system: Escherichia coli NBRC 3972
# Experiment: Sterilizing (microorganism growth inhibiting) effect, viable bacterial count
# Assay type: cell-based
# Conditions: one hour after inoculation, room temperature, phosphate-buffered saline, vs control; FIG. 1, result in words
# Procedure: Escherichia coli (Escherichia coli NBRC 3972) was used as a test bacterium. Escherichia coli was inoculated onto a standard agar medium and cultured at 30° C. to 35° C. for 24 hours. After culturing, the bacterial count was adjusted to […] using saline, whereby a test bacterial solution was obtained. Phosphate-buffered saline and ergothioneine were mixed to prepare a test sample 1 (ergothioneine concentration: 100 ppm (0.01 wt %)). Phosphate-buffered saline and isoquercitrin were mixed to prepare a test sample 2 (isoquercitrin concentration: 100 ppm (0.01 wt %)). Phosphate-buffered saline, ergothioneine, and isoquercitrin were mixed to prepare a test sample 3 (ergothioneine concentration: 2.5 ppm (0.00025 wt %), isoquercitrin concentration: 100 ppm (0.01 wt %)). Phosphate-buffered saline, ergothioneine, and isoquercitrin were mixed to prepare a test sample 4 (ergothioneine concentration: 100 ppm (0.01 wt %), isoquercitrin concentration: 100 ppm (0.01 wt %)). Phosphate-buffered saline was used as control. A test sample (5 mL) was inoculated with a 0.05 mL test bacterial solution and left standing at room temperature. […] After culturing, the number of colonies formed was counted, and the viable bacterial count was calculated (n=3). The sterilizing effect (%) was determined from the viable bacterial count (average of n=3) using the following formula. […]
structure (smiles),measurement,value
"O=c1c(O[C@@H]2O[C@H](CO)[C@@H](O)[C@H](O)[C@H]2O)c(-c2ccc(O)c(O)c2)oc2cc(O)cc(O)c12 [Isoquercitrin, quercetin 3-glucoside]",Sterilizing effect on Escherichia coli,inhibited Escherichia coli growth
